Among the data in PMC9947421 are binding values, retold here.

By UniProt entry, the sequences of proteins in these tests, tags left out. Where a name states a change or a piece, a line headed by the entry shows the natural chain unless it says otherwise.
UniProt Q99594: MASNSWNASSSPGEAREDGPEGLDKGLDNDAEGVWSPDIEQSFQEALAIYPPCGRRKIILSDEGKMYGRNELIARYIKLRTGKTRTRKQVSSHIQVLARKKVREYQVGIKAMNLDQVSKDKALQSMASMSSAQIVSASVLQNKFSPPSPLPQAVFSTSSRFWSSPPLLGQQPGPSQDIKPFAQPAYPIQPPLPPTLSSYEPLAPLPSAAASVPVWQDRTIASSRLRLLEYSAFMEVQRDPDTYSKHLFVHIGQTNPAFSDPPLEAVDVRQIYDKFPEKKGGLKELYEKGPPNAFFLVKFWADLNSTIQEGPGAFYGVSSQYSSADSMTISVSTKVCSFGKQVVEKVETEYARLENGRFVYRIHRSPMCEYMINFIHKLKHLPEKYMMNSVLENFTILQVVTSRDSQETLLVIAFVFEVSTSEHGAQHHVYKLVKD
UniProt Q5UIP0: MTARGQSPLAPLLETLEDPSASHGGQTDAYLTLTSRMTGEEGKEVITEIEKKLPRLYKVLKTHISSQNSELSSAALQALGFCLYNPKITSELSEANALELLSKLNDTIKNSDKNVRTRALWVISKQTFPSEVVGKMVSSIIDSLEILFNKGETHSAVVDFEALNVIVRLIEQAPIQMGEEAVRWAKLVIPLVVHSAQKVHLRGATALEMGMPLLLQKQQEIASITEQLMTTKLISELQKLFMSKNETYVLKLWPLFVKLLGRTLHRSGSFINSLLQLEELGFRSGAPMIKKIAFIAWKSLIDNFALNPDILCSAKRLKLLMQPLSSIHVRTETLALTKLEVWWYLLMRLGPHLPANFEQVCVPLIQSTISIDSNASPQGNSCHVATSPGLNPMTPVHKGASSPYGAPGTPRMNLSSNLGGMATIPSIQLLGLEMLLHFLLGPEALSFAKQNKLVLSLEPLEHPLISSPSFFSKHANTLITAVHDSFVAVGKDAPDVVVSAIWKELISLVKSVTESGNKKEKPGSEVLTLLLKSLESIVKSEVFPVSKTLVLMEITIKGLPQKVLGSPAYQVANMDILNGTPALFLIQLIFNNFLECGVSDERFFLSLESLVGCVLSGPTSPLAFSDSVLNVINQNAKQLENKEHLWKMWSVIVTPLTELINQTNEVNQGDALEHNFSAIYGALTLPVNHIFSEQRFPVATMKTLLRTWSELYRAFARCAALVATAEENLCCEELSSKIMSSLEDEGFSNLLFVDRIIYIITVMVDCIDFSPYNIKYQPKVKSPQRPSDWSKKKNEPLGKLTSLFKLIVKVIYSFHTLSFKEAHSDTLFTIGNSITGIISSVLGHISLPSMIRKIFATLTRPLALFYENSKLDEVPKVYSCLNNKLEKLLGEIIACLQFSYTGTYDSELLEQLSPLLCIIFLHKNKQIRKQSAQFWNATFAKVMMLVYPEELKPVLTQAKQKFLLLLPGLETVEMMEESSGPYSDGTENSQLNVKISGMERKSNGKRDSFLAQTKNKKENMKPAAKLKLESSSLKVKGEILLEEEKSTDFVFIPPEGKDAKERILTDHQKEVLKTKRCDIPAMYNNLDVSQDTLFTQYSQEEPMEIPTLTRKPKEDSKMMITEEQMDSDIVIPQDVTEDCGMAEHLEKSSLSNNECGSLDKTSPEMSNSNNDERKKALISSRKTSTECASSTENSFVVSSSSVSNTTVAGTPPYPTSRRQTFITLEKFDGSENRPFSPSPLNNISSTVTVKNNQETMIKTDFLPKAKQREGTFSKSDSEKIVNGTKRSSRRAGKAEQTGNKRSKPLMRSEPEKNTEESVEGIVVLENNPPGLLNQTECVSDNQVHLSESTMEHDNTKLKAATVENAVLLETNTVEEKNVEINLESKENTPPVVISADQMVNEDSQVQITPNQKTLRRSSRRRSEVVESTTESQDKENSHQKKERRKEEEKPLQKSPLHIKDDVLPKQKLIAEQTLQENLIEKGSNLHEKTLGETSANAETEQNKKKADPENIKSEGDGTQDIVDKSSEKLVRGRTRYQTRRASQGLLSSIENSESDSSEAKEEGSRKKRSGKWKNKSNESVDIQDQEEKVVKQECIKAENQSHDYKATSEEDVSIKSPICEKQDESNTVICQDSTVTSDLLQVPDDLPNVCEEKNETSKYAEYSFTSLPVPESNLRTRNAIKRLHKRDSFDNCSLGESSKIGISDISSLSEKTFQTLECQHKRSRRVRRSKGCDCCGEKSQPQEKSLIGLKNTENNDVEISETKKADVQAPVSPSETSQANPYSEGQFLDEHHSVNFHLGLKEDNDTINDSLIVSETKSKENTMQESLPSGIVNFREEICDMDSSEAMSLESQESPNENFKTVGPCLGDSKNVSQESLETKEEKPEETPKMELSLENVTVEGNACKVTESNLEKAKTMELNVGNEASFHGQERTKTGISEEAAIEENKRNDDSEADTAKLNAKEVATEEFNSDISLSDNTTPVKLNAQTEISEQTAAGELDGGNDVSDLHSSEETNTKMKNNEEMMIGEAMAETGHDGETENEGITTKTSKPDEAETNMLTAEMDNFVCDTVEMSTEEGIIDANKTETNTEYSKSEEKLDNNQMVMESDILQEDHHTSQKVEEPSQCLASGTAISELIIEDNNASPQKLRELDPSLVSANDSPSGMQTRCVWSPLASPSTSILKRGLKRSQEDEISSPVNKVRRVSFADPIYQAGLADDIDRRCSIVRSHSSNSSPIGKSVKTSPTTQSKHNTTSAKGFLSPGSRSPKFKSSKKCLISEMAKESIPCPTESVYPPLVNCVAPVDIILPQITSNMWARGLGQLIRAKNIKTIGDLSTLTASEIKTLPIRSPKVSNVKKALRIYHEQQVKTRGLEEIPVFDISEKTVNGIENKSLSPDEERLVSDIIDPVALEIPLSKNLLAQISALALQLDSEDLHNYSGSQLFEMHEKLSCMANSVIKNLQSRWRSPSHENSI
UniProt P13010: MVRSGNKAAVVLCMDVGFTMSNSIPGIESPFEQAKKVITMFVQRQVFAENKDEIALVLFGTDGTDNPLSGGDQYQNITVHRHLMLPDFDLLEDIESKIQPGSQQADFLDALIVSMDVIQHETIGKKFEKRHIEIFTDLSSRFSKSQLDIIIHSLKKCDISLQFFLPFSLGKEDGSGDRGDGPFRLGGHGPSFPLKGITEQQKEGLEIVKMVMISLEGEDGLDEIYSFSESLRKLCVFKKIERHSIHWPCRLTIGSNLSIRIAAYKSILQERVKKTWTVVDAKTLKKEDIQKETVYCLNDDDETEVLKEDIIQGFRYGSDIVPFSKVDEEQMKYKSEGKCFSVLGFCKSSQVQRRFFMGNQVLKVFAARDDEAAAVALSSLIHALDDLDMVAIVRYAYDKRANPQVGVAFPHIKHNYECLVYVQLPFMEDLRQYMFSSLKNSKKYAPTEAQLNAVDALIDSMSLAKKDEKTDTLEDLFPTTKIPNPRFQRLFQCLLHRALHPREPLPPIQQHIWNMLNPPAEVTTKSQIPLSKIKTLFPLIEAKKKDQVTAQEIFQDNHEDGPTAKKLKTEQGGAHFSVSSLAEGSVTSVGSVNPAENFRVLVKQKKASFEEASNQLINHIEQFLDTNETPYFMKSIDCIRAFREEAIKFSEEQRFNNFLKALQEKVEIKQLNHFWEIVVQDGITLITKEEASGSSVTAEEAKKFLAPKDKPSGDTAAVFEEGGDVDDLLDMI
UniProt P12956: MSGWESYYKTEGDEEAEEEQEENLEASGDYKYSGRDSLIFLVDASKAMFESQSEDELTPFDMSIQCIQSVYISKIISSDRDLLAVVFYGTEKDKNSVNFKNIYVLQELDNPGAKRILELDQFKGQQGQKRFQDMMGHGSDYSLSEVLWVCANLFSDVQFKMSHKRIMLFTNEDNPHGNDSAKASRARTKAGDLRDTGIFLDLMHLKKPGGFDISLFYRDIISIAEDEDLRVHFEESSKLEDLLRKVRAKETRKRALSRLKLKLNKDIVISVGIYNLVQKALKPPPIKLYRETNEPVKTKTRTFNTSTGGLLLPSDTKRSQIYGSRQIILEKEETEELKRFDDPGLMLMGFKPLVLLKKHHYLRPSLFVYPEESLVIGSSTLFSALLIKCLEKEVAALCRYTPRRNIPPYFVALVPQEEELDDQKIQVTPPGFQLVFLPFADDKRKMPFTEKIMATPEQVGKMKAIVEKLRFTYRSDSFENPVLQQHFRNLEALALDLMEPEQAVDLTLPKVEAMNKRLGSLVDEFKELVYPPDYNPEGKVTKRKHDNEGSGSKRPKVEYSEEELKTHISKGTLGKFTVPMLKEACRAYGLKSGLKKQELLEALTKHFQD
UniProt P46937: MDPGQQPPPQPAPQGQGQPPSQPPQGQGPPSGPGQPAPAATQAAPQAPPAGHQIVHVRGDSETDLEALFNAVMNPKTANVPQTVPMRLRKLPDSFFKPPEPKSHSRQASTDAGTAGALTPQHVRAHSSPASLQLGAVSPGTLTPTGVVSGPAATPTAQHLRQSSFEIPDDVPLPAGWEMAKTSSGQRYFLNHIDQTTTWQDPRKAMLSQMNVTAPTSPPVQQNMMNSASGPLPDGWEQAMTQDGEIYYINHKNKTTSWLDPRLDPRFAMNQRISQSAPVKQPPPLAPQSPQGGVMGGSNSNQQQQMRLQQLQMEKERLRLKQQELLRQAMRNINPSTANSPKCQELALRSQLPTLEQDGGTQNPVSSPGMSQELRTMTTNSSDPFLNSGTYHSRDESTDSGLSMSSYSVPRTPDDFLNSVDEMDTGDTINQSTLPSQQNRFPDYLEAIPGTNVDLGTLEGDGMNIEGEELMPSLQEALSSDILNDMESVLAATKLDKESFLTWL
UniProt P09874: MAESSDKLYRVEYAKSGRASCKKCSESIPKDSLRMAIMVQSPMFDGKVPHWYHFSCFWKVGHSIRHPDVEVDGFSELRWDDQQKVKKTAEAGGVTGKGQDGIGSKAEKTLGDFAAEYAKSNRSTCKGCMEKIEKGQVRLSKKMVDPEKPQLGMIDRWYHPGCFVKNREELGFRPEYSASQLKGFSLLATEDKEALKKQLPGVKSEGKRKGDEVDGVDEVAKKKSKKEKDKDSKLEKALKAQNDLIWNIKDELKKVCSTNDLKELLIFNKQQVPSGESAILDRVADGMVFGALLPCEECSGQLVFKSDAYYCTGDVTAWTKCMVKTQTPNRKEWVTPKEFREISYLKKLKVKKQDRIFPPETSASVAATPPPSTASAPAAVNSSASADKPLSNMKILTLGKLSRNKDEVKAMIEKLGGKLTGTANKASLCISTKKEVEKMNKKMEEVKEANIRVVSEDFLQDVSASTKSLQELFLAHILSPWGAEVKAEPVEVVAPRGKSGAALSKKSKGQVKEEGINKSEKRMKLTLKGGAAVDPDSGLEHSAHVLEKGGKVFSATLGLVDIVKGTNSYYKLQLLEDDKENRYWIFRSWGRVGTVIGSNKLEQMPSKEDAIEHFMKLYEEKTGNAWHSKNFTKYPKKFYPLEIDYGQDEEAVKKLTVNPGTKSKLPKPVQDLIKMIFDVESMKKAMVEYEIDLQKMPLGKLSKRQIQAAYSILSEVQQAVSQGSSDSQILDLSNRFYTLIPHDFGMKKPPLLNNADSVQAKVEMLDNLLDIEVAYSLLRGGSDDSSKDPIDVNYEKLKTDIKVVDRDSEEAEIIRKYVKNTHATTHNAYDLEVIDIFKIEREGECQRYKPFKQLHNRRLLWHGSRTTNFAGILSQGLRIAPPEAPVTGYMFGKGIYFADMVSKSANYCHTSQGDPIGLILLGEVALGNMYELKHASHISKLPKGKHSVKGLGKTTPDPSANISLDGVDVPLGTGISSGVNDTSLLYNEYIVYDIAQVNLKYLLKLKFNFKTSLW
UniProt Q9GZV5: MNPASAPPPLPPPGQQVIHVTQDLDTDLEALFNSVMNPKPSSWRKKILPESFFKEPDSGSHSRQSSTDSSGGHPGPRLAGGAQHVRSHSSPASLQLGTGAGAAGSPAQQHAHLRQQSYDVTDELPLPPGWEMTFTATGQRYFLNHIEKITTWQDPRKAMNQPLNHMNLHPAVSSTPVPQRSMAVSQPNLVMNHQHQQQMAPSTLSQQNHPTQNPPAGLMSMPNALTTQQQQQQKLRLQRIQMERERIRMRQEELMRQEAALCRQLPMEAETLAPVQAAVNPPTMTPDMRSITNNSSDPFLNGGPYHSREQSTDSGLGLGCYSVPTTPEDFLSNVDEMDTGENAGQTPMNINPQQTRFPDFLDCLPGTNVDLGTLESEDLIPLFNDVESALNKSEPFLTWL

Holding throughout (experiment): affinity purification with mass spectrometry; anti-Myc IP (protein A and G Dynabeads) of doxycycline-induced MYC/FLAG WT or NLS mutant TEAD3 from HEK293 and Detroit 562 whole cell lysates; 20 mM Tris-HCl pH 7.4, 150 mM NaCl, 0.5% NP-40, 2 mM MgCl2, universal nuclease; isotype IgG IP as control; GeLC-MS, SAINTexpress scoring; three biological replicates
The target of assay [1] is WT TEAD3-Myc/Flag (human) (UniProt Q99594).
The target of assay [2] is NLS mutant TEAD3-Myc/Flag (human) (UniProt Q99594).
Assay [3] concerns the target WT TEAD3-Myc/Flag (human) (UniProt Q99594). This is another data set of the same source.
Assay [4] deals with NLS mutant TEAD3-Myc/Flag (human) (UniProt Q99594). This is another data set of the same source.

Like-named read-outs stand apart in the source and are kept apart here. These are yes or no findings as the source states them, for the method shown. In cells and extracts the contact can be indirect. A yes stands for co-enrichment or nearness to the bait. Other partners may have been found.

With “DNA-dependent protein kinase, catalytic subunit (PRKDC/DNAPKcs) (from UniProt P78527 1-4128)”, the binding result in assay [1] is given as “binds”.

For “Rap1-interacting factor 1 (RIF1) (from UniProt Q5UIP0 1-2472)”, the binding result in assay [1] is on record as “binds”.

Regarding “X-ray repair cross-complementing protein 5 (XRCC5) (from UniProt P13010 1-732)”, in assay [1], the binding entry is given as “binds”.

For “X-ray repair cross-complementing protein 6 (XRCC6) (from UniProt P12956 1-609)”, the binding entry in assay [1] is recorded as “binds”.

For the molecule “Yes-associated protein (YAP) (from UniProt P46937 1-504)”, the binding entry in assay [2] is on record as “binds”.

Consider “poly(ADP-ribose) polymerase 1 (PARP1) (from UniProt P09874 1-1014)”, for which the binding result in assay [1] was “binds”.

Regarding “transcriptional co-activator with PDZ-binding motif (TAZ) (from UniProt Q9GZV5 1-400)”, the binding result in assay [1] and in assay [2] was “binds” throughout.

B1: VGLL4 (protein, UniProt Q14135 1-290)
chain: METPLDVLSRAASLVHADDEKREAALRGEPRIQTLPVASALSSHRTGPPPISPSKRKFSMEPGDEDLDCDNDHVSKMSRIFNPHLNKTANGDCRRDPRERSRSPIERAVAPTMSLHGSHLYTSLPSLGLEQPLALTKNSLDASRPAGLSPTLTPGERQQNRPSVITCASAGARNCNLSHCPIAHSGCAAPGPASYRRPPSAATTCDPVVEEHFRRSLGKNYKEPEPAPNSVSITGSVDDHFAKALGDTWLQIKAAKDGASSSPESASRRGQPASPSAHMVSHSHSPSVVS
For B1, the binding entry in assay [3] and in assay [4] was “binds” each time.
